The entries are a selection whose mix differs from that of the whole data set. At the low end of the ranking, values are background and their order means little.

Assay in all cases: DAPPL (digital affinity profiling via proximity ligation, sequencing)
Details in all cases: 10 mM Tris-HCl pH 7.5, 50 mM NaCl, 1 mM DTT, 4% glycerol, room temperature, 30 min; GST-TFs on glutathione beads, 16-mer random dsDNA library, 0.1% …; high values mean tight binding; double strand, one strand shown; scale: fold enrichment (6-mer frequency, TF over GST control)

The target of one assay is T1, ELK1 (UniProt P19419).
T1 sequence: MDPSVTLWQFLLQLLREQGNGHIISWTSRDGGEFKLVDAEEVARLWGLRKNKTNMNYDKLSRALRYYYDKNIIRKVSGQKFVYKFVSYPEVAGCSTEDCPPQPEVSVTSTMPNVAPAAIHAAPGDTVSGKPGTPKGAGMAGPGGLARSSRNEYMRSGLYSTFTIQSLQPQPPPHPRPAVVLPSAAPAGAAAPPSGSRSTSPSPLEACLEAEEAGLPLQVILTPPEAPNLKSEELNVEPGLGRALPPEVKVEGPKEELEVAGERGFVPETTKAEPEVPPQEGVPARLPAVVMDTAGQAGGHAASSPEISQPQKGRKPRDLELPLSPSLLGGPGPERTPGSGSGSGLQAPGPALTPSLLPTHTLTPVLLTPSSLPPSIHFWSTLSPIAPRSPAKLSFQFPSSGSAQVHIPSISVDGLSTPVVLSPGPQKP

Another assay addresses T2, ELK3 (UniProt P41970).
T2 sequence: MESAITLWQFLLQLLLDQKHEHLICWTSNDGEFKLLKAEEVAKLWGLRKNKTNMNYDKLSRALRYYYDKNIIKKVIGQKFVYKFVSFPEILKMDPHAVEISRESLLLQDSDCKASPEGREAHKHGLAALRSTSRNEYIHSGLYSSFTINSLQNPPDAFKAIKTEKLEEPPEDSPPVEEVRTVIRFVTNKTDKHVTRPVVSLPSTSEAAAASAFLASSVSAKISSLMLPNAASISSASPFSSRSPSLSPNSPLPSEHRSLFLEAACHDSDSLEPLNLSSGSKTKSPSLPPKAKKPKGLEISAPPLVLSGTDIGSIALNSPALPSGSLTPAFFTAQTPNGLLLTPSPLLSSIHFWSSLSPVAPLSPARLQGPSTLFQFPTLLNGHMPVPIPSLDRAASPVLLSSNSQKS

The target in another assay is T3, SPIC (UniProt Q8N5J4).
T3 sequence: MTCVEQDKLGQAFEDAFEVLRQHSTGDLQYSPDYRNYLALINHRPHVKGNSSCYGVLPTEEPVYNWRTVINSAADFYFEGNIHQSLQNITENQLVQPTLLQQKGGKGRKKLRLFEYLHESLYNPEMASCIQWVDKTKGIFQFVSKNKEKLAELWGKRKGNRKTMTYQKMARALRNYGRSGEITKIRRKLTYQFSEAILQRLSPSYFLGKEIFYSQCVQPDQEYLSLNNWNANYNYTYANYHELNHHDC

In a further assay the target is T4, ETS2 (UniProt P15036).
T4 sequence: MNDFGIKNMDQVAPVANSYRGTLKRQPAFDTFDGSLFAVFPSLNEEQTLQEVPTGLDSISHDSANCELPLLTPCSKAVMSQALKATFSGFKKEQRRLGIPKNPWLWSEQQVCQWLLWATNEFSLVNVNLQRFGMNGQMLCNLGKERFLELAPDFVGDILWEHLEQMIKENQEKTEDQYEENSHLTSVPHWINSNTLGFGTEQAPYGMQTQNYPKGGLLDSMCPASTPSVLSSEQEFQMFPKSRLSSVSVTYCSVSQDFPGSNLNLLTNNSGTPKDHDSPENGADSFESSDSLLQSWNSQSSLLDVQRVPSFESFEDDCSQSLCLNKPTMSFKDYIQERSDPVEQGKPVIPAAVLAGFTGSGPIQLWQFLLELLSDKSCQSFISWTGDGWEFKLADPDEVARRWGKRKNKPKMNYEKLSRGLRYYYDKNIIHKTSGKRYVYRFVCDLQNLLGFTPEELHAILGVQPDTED

For a further assay, the target named is T5, ETV3 (UniProt P41162-2).
T5 sequence: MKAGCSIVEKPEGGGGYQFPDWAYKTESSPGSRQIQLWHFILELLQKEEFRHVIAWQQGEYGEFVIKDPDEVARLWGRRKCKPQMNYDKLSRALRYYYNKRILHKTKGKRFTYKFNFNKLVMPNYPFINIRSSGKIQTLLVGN

Regarding GGTAGG, the binding signal is 0.661 with ELK1; 0.606 in the assay with ELK3; 0.67 with SPIC; 0.631 in the assay with ETS2; 0.665 in the assay with ETV3.

As for GCATAG, the binding signal with ELK1 was 0.791; with ELK3 it was 0.769; with SPIC, 0.814; with ETS2, 0.877; with ETV3, 0.845.

Take CGGGTA: the binding signal with ELK1 worked out at 0.72; with ELK3 it was 0.793; with SPIC, 0.666; in the assay with ETS2 it was 0.852; with ETV3, 0.871.

Take TGAGCA: the binding signal with ELK1 was 0.875; with ELK3 it was 0.772; with SPIC, 0.91; in the assay with ETS2, 0.876; with ETV3, 0.829.

On to GACTAG, for which the binding signal was 0.812 in the assay with ELK1; 0.801 in the assay with ELK3; 0.76 in the assay with SPIC; 0.752 with ETS2; 0.692 with ETV3.

In the case of GGGATG, the binding signal in the assay with ELK1 was found to be 0.914; in the assay with ELK3, 0.932; with SPIC it was 0.905; with ETS2, 0.95; in the assay with ETV3, 0.866.

Take GGTGGG: the binding signal in the assay with ELK1 turned out to be 0.659; with ELK3, 0.738; with SPIC, 0.613; with ETS2 it was 0.707; in the assay with ETV3 it was 0.617.

For GAGTCC, the binding signal with ELK1 is 0.406; with ELK3, 0.426; in the assay with SPIC, 0.387; with ETS2, 0.391; with ETV3, 0.398.

On to TAGAGG, for which the binding signal was 0.826 with ELK1; 0.798 with ELK3; 0.903 with SPIC; 0.781 with ETS2; 0.809 with ETV3.

For ACGCAT, the binding signal in the assay with ELK1 stood at 0.763; with ELK3, 0.817; in the assay with SPIC it was 0.84; with ETS2, 0.789; with ETV3, 0.809.

In the case of TCGTGT, the binding signal with ELK1 was found to be 0.846; in the assay with ELK3, 0.789; with SPIC, 0.696; with ETS2, 0.755; with ETV3, 0.767.

For the sequence ACCGCG, the binding signal with ELK1 was 0.928; with ELK3, 0.791; with SPIC, 0.929; in the assay with ETS2, 0.87; with ETV3, 0.863.

As for ACCAGT, the binding signal came out at 0.49 with ELK1; 0.466 in the assay with ELK3; 0.453 with SPIC; 0.471 in the assay with ETS2; 0.468 in the assay with ETV3.

Take GGTGCT: the binding signal was 0.957 in the assay with ELK1; 0.849 in the assay with ELK3; 0.837 with SPIC; 0.907 in the assay with ETS2; 0.894 in the assay with ETV3.

Take GTAGGT: the binding signal in the assay with ELK1 is 0.859; with ELK3, 0.836; in the assay with SPIC it was 0.964; with ETS2, 0.767; with ETV3, 0.876.

Turning to ACGTGA, the binding signal came to 0.283 with ELK1; 0.283 with ELK3; 0.229 with SPIC; 0.289 with ETS2; 0.252 with ETV3.

As for CGTGGT, the binding signal turned out to be 0.582 in the assay with ELK1; 0.64 in the assay with ELK3; 0.592 with SPIC; 0.564 with ETS2; 0.594 with ETV3.

For GGCATG, the binding signal was determined as 0.882 with ELK1; 0.694 with ELK3; 0.954 with SPIC; 0.846 with ETS2; 0.796 with ETV3.

Turning to CAGTGG, the binding signal with ELK1 is 0.507; with ELK3, 0.538; in the assay with SPIC it was 0.456; with ETS2 it was 0.497; in the assay with ETV3 it was 0.5.

AGATCG: the binding signal was determined as 0.515 with ELK1; 0.394 with ELK3; 0.433 with SPIC; 0.461 with ETS2; 0.476 with ETV3.

Consider TGAGGA, for which the binding signal in the assay with ELK1 is 0.692; in the assay with ELK3, 0.66; with SPIC, 0.631; with ETS2, 0.721; in the assay with ETV3, 0.695.

Turning to GCAGAC, the binding signal in the assay with ELK1 is 0.723; with ELK3, 0.636; in the assay with SPIC, 0.681; with ETS2, 0.742; in the assay with ETV3, 0.712.

Take TCGGTC: the binding signal was 0.578 in the assay with ELK1; 0.577 with ELK3; 0.638 with SPIC; 0.521 with ETS2; 0.533 with ETV3.

In the case of GACAGC, the binding signal with ELK1 was 0.81; with ELK3, 0.704; with SPIC it was 0.673; with ETS2 it was 0.846; with ETV3, 0.735.

Turning to AGAGAG, the binding signal with ELK1 was determined as 0.523; with ELK3, 0.548; in the assay with SPIC, 0.57; with ETS2, 0.466; in the assay with ETV3, 0.484.

Turning to TAGTCG, the binding signal was found to be 0.467 in the assay with ELK1; 0.554 with ELK3; 0.474 in the assay with SPIC; 0.498 with ETS2; 0.427 with ETV3.

On to ACAGAG, for which the binding signal was found to be 0.712 in the assay with ELK1; 0.648 with ELK3; 0.739 with SPIC; 0.709 in the assay with ETS2; 0.708 with ETV3.

On to GCGGCC, for which the binding signal in the assay with ELK1 turned out to be 0.843; in the assay with ELK3, 0.63; with SPIC it was 0.72; with ETS2 it was 0.726; with ETV3, 0.776.

On to GACGCG, for which the binding signal in the assay with ELK1 is 0.597; with ELK3, 0.616; with SPIC, 0.533; with ETS2, 0.593; in the assay with ETV3, 0.631.

Take TGCCGT: the binding signal was determined as 0.831 with ELK1; 0.85 with ELK3; 0.847 with SPIC; 0.813 with ETS2; 0.835 in the assay with ETV3.

The values are drawn from PMC7862700.
